Experimental data reported in article PMC8753592, “Long-acting capsid inhibitor protects macaques from repeat SHIV challenges” (Nature, 2021).
“And” between values parts separate entries of the source, which are not always exact repeats. Equal entries are not always repeated. Where two headings read alike, the source gives them in different places. This continues a long series; more values of the same kind are listed elsewhere.

Key:
SHIV-SF162P3 = assay type: cell-based, SHIV (in rhesus macaque, Macaca mulatta, PBMCs); conditions: experiments 1–7
Description: Freshly isolated PBMCs from three male rhesus macaque (M. mulatta) donors of Indian origin (HumanCells Biosciences) were cultured in RPMI-1640 cell culture medium (Life Technologies) supplemented with 10% heat-inactivated FBS (Hyclone), 2 mM glutamine and 100 U ml^−1 penicillin plus 100 μg ml^−1 streptomycin (complete RPMI). Before their use in the antiviral assays, rhesus PBMCs from three independent donors were pooled and activated at a density of 3 × 10^6 cells per ml for 72 h at 37 °C by the addition of 1 μg ml^–1 phytohemagglutinin (PHA, Sigma-Aldrich) and 50 U ml^−1 recombinant human interleukin-2 (IL-2) (Roche Diagnostics).
PHA/IL-2-stimulated rhesus PBMCs were infected in bulk culture with SHIV-SF162P3 at a concentration of 130 pg of p27 equivalent per million PBMCs. The cells were maintained in suspension by gently rocking the cultures mixed with virus inoculum for 3 h at 37 °C. The cells were then pelleted by centrifugation at 500g for 5 min, washed twice with complete RPMI to remove any unadsorbed virus and seeded into 96-well plates at a cell density of 2 × 10^5 cells per well in 100 μl. […] The cultures were incubated in a 5% CO2 incubator at 37 °C for 7 days. Cell-free supernatants derived from the PBMC cultures were harvested 7 days after infection, the amount of SHIV present was quantified using an SIV p27 antigen-capture ELISA assay (5436, Advanced Bioscience Laboratories) performed according to the manufacturer’s protocol, and the data were acquired using SoftMax Pro 6.3.1 software (Molecular Devices).

[1] = Plasma GS-CA1 pharmacokinetics in the repeat SHIV challenge study; assay type: in vivo, rhesus macaques of Indian origin; conditions: individual animals
Description: For the challenge study, 24 outbred rhesus macaques of Indian origin were assigned to the three study groups with even sex and weight distributions. All animals were housed at Alpha Genesis (Yemassee, SC), and all procedures were conducted in compliance with all relevant local, state and federal regulations and were approved by the Alpha Genesis IACUC. […] The injection sites were monitored daily by veterinary staff for 3 days. Beginning in week 1, animals in all three groups were challenged by the intrarectal route with 1 ml of RPMI containing the specified dilution of a 3.62 × 10^3 TCID50 SHIV-SF162P3 stock. At each respective time point, the challenges were performed on the same day, using the same virus stock and inoculation method across the three groups. Whole blood was collected and processed into plasma and PBMCs as necessary to assess routine haematology, clinical chemistry, viral load and serology as well as for bioanalysis of drug levels. The animals were considered to be protected if they remained SHIV negative by plasma PCR assay and seronegative by enzyme immunoassay throughout the 15-week challenge phase and the 9-week follow-up.
Rhesus plasma samples were stored frozen at −80 °C.

CC(C)(C#Cc1ccc(-c2ccc(Cl)c3c(NS(=O)(=O)C4CC4)nn(CC(F)F)c23)c([C@H](Cc2cc(F)cc(F)c2)NC(=O)Cn2nc(C(F)F)c3c2C(F)(F)[C@@H]2C[C@H]32)n1)S(C)(=O)=O [GS-CA1]
% Virus Production, replicates n1–n3 (SHIV-SF162P3; 0.011 nM): 129% and 140% and 95% and 64% and 62% and 78% | % Virus Production, replicates n1–n3 (SHIV-SF162P3; 0.034 nM): 100% and 113% and 84% and 46% and 63% and 77% | % Virus Production, replicates n1–n3 (SHIV-SF162P3; 0.103 nM): 106% and 94% and 96% and 64% and 68% and 70% | % Virus Production, replicates n1–n3 (SHIV-SF162P3; 0.309 nM): 133% and 83% and 67% and 60% and 55% and 77% and 114% and 90% | % Virus Production, replicates n1–n3 (SHIV-SF162P3; 0.926 nM): 15% and 30% and 21% and 19% and 49% | % Virus Production, replicates n1–n3 (SHIV-SF162P3; 2.778 nM): 2.16% and 2.5% and 3% and 1.09% and 1.19% and -0.328% and 0.0863% and 0.4% | % Virus Production, replicates n1–n3 (SHIV-SF162P3; 8.333 nM): 1.26% and 2.41% and 2% and 0.764% and -0.341% and -0.19% and -0.0556% and 1.21% and 0.0342% | % Virus Production, replicates n1–n3 (SHIV-SF162P3; 25.000 nM): -0.742% and -0.504% and -0.141% and 1.27% and 0.894% and -0.0427% and -0.107% | Plasma GS-CA1 ([1]; 150 mg/kg single s.c., Week 1): 682.28 nM and 607.28 nM and 3112.4 nM and 2515.88 nM and 761.71 nM and 881.7 nM and 687.72 nM | Plasma GS-CA1 ([1]; 150 mg/kg single s.c., Week 2): 785.09 nM and 1097.4 nM and 2107.99 nM and 2027.37 nM and 1058.77 nM and 1219.47 nM and 772.74 nM | Plasma GS-CA1 ([1]; 150 mg/kg single s.c., Week 3): 268.8 nM and 333.73 nM and 751.15 nM and 1370.65 nM and 334.48 nM and 208.6 nM and 196.6 nM | Plasma GS-CA1 ([1]; 150 mg/kg single s.c., Week 4): 236.71 nM and 181.28 nM and 538.14 nM and 447.86 nM and 225.23 nM and 165.1 nM and 67.54 nM | Plasma GS-CA1 ([1]; 150 mg/kg single s.c., Week 5): 86.54 nM and 202.79 nM and 333.46 nM and 449.04 nM and 141.28 nM and 113.5 nM and 95.4 nM | Plasma GS-CA1 ([1]; 150 mg/kg single s.c., Week 6): 84.2 nM and 202.04 nM and 164.24 nM and 313.35 nM and 81.89 nM and 78.22 nM and 94.45 nM | Plasma GS-CA1 ([1]; 150 mg/kg single s.c., Week 7): 58.28 nM and 136.23 nM and 139.14 nM and 249.92 nM and 68.8 nM and 45.78 nM and 64.92 nM | Plasma GS-CA1 ([1]; 150 mg/kg single s.c., Week 8): 152.23 nM and 170.61 nM and 117.65 nM and 160.15 nM and 80.45 nM and 55.63 nM and 81.64 nM | Plasma GS-CA1 ([1]; 150 mg/kg single s.c., Week 9): 79.54 nM and 80.39 nM and 134.53 nM and 64.84 nM and 24.54 nM and 26.69 nM | Plasma GS-CA1 ([1]; 150 mg/kg single s.c., Week 10): 94.96 nM and 71.29 nM and 143.77 nM and 40.65 nM and 34.92 nM and 30.22 nM | Plasma GS-CA1 ([1]; 150 mg/kg single s.c., Week 11): 53.1 nM and 51.13 nM and 71.46 nM and 23.98 nM and 12.35 nM and 18.52 nM | Plasma GS-CA1 ([1]; 150 mg/kg single s.c., Week 12): 60.15 nM and 56 nM and 122.09 nM and 35.07 nM and 15.87 nM and 20.76 nM | Plasma GS-CA1 ([1]; 150 mg/kg single s.c., Week 13): 69.19 nM and 42.95 nM and 48.2 nM and 62.92 nM and 42.14 nM and 9.51 nM and 14.42 nM | Plasma GS-CA1 ([1]; 150 mg/kg single s.c., Week 14): 37.18 nM and 42.14 nM and 41.88 nM and 89.43 nM and 23.2 nM and 7 nM and 12.98 nM | Plasma GS-CA1 ([1]; 150 mg/kg single s.c., Week 15): 37.73 nM and 25.05 nM and 38.57 nM and 44.35 nM and 22.39 nM and 4.16 nM and 9.5 nM | Plasma GS-CA1 ([1]; 150 mg/kg single s.c., Week 16): 17.69 nM and 12.49 nM and 11.32 nM and 27.66 nM and 12.82 nM and 1.61 nM and 6.13 nM | Plasma GS-CA1 ([1]; 150 mg/kg single s.c., Week 17): 20.95 nM and 14.29 nM and 11.67 nM and 20.8 nM and 13.83 nM and 1.22 nM and 5.08 nM | Plasma GS-CA1 ([1]; 150 mg/kg single s.c., Week 18): 21.96 nM and 14.77 nM and 17.45 nM and 26.6 nM and 9.89 nM and 1.7 nM and 4.55 nM | Plasma GS-CA1 ([1]; 150 mg/kg single s.c., Week 19): 31.14 nM and 16.18 nM and 26.67 nM and 23.66 nM and 14.78 nM and 2.45 nM and 4.87 nM | Plasma GS-CA1 ([1]; 150 mg/kg single s.c., Week 20): 23.39 nM and 12.31 nM and 15.93 nM and 26.89 nM and 11.3 nM and 1.35 nM and 3.73 nM | Plasma GS-CA1 ([1]; 150 mg/kg single s.c., Week 21): 6.46 nM and 2.59 nM and 3.91 nM and 7.83 nM and 3.15 nM and 1 nM | Plasma GS-CA1 ([1]; 150 mg/kg single s.c., Week 22): 6.86 nM and 2.53 nM and 2 nM and 5.84 nM and 1.85 nM and 1 nM | Plasma GS-CA1 ([1]; 150 mg/kg single s.c., Week 23): 3.4 nM and 1.2 nM and 1.06 nM and 3.85 nM and 1.48 nM and 1 nM | Plasma GS-CA1 ([1]; 150 mg/kg single s.c., Week 24): 4.61 nM and 1.83 nM and 2.28 nM and 3.82 nM and 2.11 nM and 1 nM | Plasma GS-CA1 ([1]; 300 mg/kg single s.c., Week 1): 6745.1 nM and 5527.81 nM and 3173.56 nM and 2250.56 nM and 1571.81 nM and 7818.17 nM and 2215.11 nM and 1943.85 nM | Plasma GS-CA1 ([1]; 300 mg/kg single s.c., Week 2): 5020.82 nM and 1944.23 nM and 2465.66 nM and 1332.35 nM and 2066.12 nM and 3982.53 nM and 1948.63 nM and 1830.01 nM | Plasma GS-CA1 ([1]; 300 mg/kg single s.c., Week 3): 1253.58 nM and 941.93 nM and 1003.46 nM and 894.45 nM and 508.47 nM and 1653.88 nM and 632.49 nM and 741.55 nM | Plasma GS-CA1 ([1]; 300 mg/kg single s.c., Week 4): 743.3 nM and 863.19 nM and 663.58 nM and 529.86 nM and 358.71 nM and 724.82 nM and 416.16 nM and 362.21 nM | Plasma GS-CA1 ([1]; 300 mg/kg single s.c., Week 5): 556.02 nM and 402.12 nM and 486.51 nM and 395.27 nM and 265.76 nM and 522.82 nM and 267.83 nM and 377.26 nM | Plasma GS-CA1 ([1]; 300 mg/kg single s.c., Week 6): 395.92 nM and 369.69 nM and 282.5 nM and 382.44 nM and 161.43 nM and 241.65 nM and 272.87 nM and 350.17 nM | Plasma GS-CA1 ([1]; 300 mg/kg single s.c., Week 7): 342.71 nM and 179.75 nM and 260.83 nM and 339.37 nM and 180.41 nM and 131.88 nM and 157.56 nM and 306.88 nM | Plasma GS-CA1 ([1]; 300 mg/kg single s.c., Week 8): 287.02 nM and 209.19 nM and 239.58 nM and 319.17 nM and 140.45 nM and 378.49 nM and 155.27 nM and 225.76 nM | Plasma GS-CA1 ([1]; 300 mg/kg single s.c., Week 9): 146.99 nM and 126.8 nM and 131.46 nM and 82.73 nM and 87.54 nM and 177.38 nM and 103.79 nM and 122.13 nM | Plasma GS-CA1 ([1]; 300 mg/kg single s.c., Week 10): 131 nM and 72.85 nM and 69.86 nM and 54.53 nM and 98.13 nM and 116.65 nM and 106.49 nM and 114.46 nM | Plasma GS-CA1 ([1]; 300 mg/kg single s.c., Week 11): 96.21 nM and 31.54 nM and 50.2 nM and 50.03 nM and 60.16 nM and 93.91 nM and 52.24 nM and 72.29 nM | Plasma GS-CA1 ([1]; 300 mg/kg single s.c., Week 12): 52.67 nM and 93.47 nM and 85.26 nM and 65.93 nM and 84.23 nM and 74.51 nM and 101.46 nM | Plasma GS-CA1 ([1]; 300 mg/kg single s.c., Week 13): 66.2 nM and 32.01 nM and 73.76 nM and 74.07 nM and 43.01 nM and 66.16 nM and 46.75 nM and 76.93 nM | Plasma GS-CA1 ([1]; 300 mg/kg single s.c., Week 14): 62.7 nM and 39.51 nM and 82.73 nM and 93.72 nM and 44.99 nM and 84.64 nM and 41.4 nM and 86.17 nM | Plasma GS-CA1 ([1]; 300 mg/kg single s.c., Week 15): 31.84 nM and 47.7 nM and 47.41 nM and 46.82 nM and 46.22 nM and 29.22 nM and 49.88 nM | Plasma GS-CA1 ([1]; 300 mg/kg single s.c., Week 16): 26.06 nM and 21.9 nM and 27.7 nM and 23.64 nM and 20.26 nM and 34.03 nM and 14.71 nM and 29.78 nM | Plasma GS-CA1 ([1]; 300 mg/kg single s.c., Week 17): 22.7 nM and 16.57 nM and 27.76 nM and 26.06 nM and 20.51 nM and 24.33 nM and 12.8 nM and 38.1 nM | Plasma GS-CA1 ([1]; 300 mg/kg single s.c., Week 18): 33.14 nM and 13.56 nM and 30.17 nM and 25.35 nM and 35.49 nM and 27.53 nM and 17.91 nM and 47.6 nM | Plasma GS-CA1 ([1]; 300 mg/kg single s.c., Week 19): 41.41 nM and 14.88 nM and 69.82 nM and 46.95 nM and 28.95 nM and 44.98 nM and 17.38 nM and 40.91 nM | Plasma GS-CA1 ([1]; 300 mg/kg single s.c., Week 20): 25.1 nM and 13.16 nM and 46.61 nM and 34.18 nM and 32.72 nM and 41.86 nM and 12.28 nM and 43.8 nM
